Where a name gives a salt, the structure may show the parent alone. ± gives the standard deviation of the averaged measurements. Whole data set: some 1,800 compounds, median “GFP- (p16Ink4a-) cell count relative to negative-control wells” near 0.99, cut for the lowest 2% near 0.5. The list shows a part of the results.

This test relates to mouse p16Ink4a+/- lung fibroblasts (INKBRITE, bleomycin-injured). The test can be described thus: GFP- (p16Ink4a-) cell count relative to negative-control wells (fold of vehicle); higher = more p16Ink4a- cells surviving. The settings on record: 1 µM; 3 days.
In turn, `CC(C)(O)CC(=O)NCCn1ccc2ncnc(Nc3ccc(Oc4cccc(C(F)(F)F)c4)c(Cl)c3)c21` gave a GFP- of 1.03. In the case of `CC(C)C(=O)Oc1ccc(CO)cc1[C@H](CCN(C(C)C)C(C)C)c1ccccc1` [Fesoterodine], the GFP- was determined as 1.22.

As to `O=c1c2ccccc2oc2ccccc12` [Xanthone], the GFP- is 1.06. In the case of `Cc1cnc(NC(=O)Nc2cc(Br)c(C)cc2OC[C@@H]2CNCCO2)cn1` it was 0.93. In the case of `COC(=O)N[C@H](C(=O)N1CCC[C@H]1c1nc(-c2ccc(-c3ccc(-c4c[nH]c([C@@H]5CCCN5C(=O)[C@@H](NC(=O)OC)C(C)C)n4)cc3)cc2)c[nH]1)C(C)C` [Daclatasvir] it was 1.11. In the case of `COc1ccc(CNC(=O)Nc2ncc([N+](=O)[O-])s2)cc1` [N-(4-Methoxybenzyl)-N'-(5-Nitro-1,3-Thiazol-2-Yl)Urea] it was 1.03; in that of `O=C(O)c1cc(N=Nc2ccc(O)c(C(=O)O)c2)ccc1O` [Olsalazine], 1.15; in that of `Cc1onc(-c2ccccc2)c1-c1ccc(S(N)(=O)=O)cc1` [Valdecoxib], 0.879. With `C=CCc1cc(OC)c(O)c(C(=O)NCCO)c1` [Alibendol], the GFP- is 1.04. In the case of `Clc1ccc(C(Cn2ccnc2)OCc2ccc(Sc3ccccc3)cc2)c(Cl)c1` (stereo unspecified) [Fenticonazole Nitrate] it was 1.13. For `COc1ccccc1N1CCN(CCN(C(=O)C2CCCCC2)c2ccccn2)CC1` the value was 0.865; for `CC(=O)OCC(CCn1cnc2cnc(N)nc21)COC(C)=O` [Famciclovir], 1.16. For `CN1CCC(=C2c3ccccc3C=Cc3ccccc32)CC1` [Cyproheptadine] the value was 0.895. `CC[C@@H](C)C[C@@H](C)CCCCCCCCC(=O)N[C@H]1C[C@@H](O)[C@@H](NCCN)NC(=O)[C@@H]2[C@@H](O)CCN2C(=O)[C@H]([C@H](O)CCN)NC(=O)[C@H]([C@H](O)[C@@H](O)c2ccc(O)cc2)NC(=O)[C@@H]2C[C@@H](O)CN2C(=O)[C@H]([C@@H](C)O)NC1=O` [Caspofungin Acetate] yielded a GFP- of 1.04. In the case of `CCC(=O)O[C@]1(C(=O)CCl)[C@@H](C)C[C@H]2[C@@H]3CCC4=CC(=O)C=C[C@]4(C)[C@@]3(F)[C@@H](O)C[C@@]21C` [Clobetasol Propionate] it was 1.02; in that of `COCCc1ccc(OCC(O)CNC(C)C)cc1` (stereo unspecified) [Metoprolol], 1.04.

`CCOC(=O)OC(C)OC1=C(C(=O)Nc2ccccn2)N(C)S(=O)(=O)c2ccccc21` (stereo unspecified) [Ampiroxicam] displayed a GFP- of 1.13.

`C=CC(=O)Nc1cccc(Sc2nc(Nc3ccc(N4CCN(C)CC4)cc3)ncc2Cl)c1` had a GFP- of 0.995. For `CC[C@H]1OC(=O)[C@H](C)[C@@H](O[C@H]2C[C@@](C)(OC)[C@@H](O)[C@H](C)O2)[C@H](C)[C@@H](O[C@@H]2O[C@H](C)C[C@H](N(C)C)[C@H]2O)[C@](C)(OC)C[C@@H](C)C(=O)[C@H](C)[C@@H](O)[C@]1(C)O` [Clarithromycin] the value was 0.939. In the case of `O=C(/C=C\n1cnc(-c2cc(C(F)(F)F)cc(C(F)(F)F)c2)n1)NNc1cnccn1` [Selinexor (KPT-330)] it was 0.613; in that of `O=C(NOC[C@H](O)CO)c1ccc(F)c(F)c1Nc1ccc(I)cc1F`, 0.846. For `O=P(O)(O)C(O)(Cn1ccnc1)P(=O)(O)O` [Zoledronic Acid] the value was 0.978; for `CC(=O)O[C@H]1CC[C@@]2(C)C(=CC[C@H]3[C@H]2CC[C@]2(C)C(c4cccnc4)=CC[C@@H]32)C1` [Abiraterone Acetate], 1.13; for `N[C@@]1(C(=O)O)CS(=O)(=O)[C@H]2[C@H](C(=O)O)[C@H]21`, 1.01. Consider `CC[C@H]1OC(=O)[C@H](C)[C@@H](O[C@H]2C[C@@](C)(OC)[C@@H](O)[C@H](C)O2)[C@H](C)[C@@H](O[C@@H]2O[C@H](C)C[C@H](N(C)C)[C@H]2O)[C@@](C)(O)C[C@@H](C)[C@@H]2N[C@@H](COCCOC)OC([C@H]2C)[C@]1(C)O` [Dirithromycin], for which the GFP- stood at 1.06. `COc1cccc2c1C(=O)c1c(O)c3c(c(O)c1C2=O)C[C@@](O)(C(=O)CO)C[C@@H]3O[C@H]1C[C@H](N)[C@@H](O)[C@H](C)O1` [Epirubicin, Epirubicin Hydrochloride]: the GFP- is 0.713. In the case of `CC[N+](CC)(CC)CCOc1cccc(OCC[N+](CC)(CC)CC)c1OCC[N+](CC)(CC)CC` [Gallamine Triethiodide] it was 1.06; in that of `Nc1ncnc2c1c(-c1cnc3[nH]ccc3c1)nn2C1CCCC1`, 0.581; in that of `O=C(CCc1ccc(O)cc1)c1c(O)cc(O)cc1O` [Phloretin], 0.984.

`CC(C)(Oc1ccc(Cl)cc1)C(=O)OCCOC(=O)c1cccnc1` [Etofibrate]: the GFP- turned out to be 0.897. For `Cn1cc(C2=C(c3ccc(Cl)cc3Cl)C(=O)NC2=O)c2ccccc21` the value was 0.845; for `CCCC(=O)Nc1ccc(OCC(O)CNC(C)C)c(C(C)=O)c1` (stereo unspecified) [Acebutolol], 1.04; for `CCn1c(-c2nonc2N)nc2c(C#CC(C)(C)O)ncc(OC[C@H]3CCCNC3)c21`, 1.05. In the case of `C[C@H](NC(=O)CCc1nc(O)c2ccccc2n1)c1ccccc1` it was 0.998 ± 0.037; in that of `CCN(c1cc(-c2ccc(CN3CCOCC3)cc2)cc(C(=O)NCc2c(C)cc(C)nc2O)c1C)C1CCOCC1`, 0.827 ± 0.15; in that of `CCC[C@H](NC(=O)/C(C#N)=C/c1cccc(Br)n1)c1ccccc1` [Degrasyn], 0.963. For `CCC[C@H](NC(=O)[C@@H]1[C@H]2CCC[C@H]2CN1C(=O)[C@@H](NC(=O)[C@@H](NC(=O)c1cnccn1)C1CCCCC1)C(C)(C)C)C(=O)C(=O)NC1CC1` [Telaprevir] the value was 0.892; for `Cc1nc(NC(=O)N2CCC[C@H]2C(N)=O)sc1-c1ccnc(C(C)(C)C(F)(F)F)c1`, 0.875; for `COc1ccc(CC2c3cc(OC)c(OC)cc3CC[N+]2(C)CCC(=O)OCCCCCOC(=O)CC[N+]2(C)CCc3cc(OC)c(OC)cc3C2Cc2ccc(OC)c(OC)c2)cc1OC` (stereo unspecified) [Atracurium Besylate], 1.04.

As to `CC(=O)[C@H]1CC[C@H]2[C@@H]3CC=C4C[C@@H](O)CC[C@]4(C)[C@H]3CC[C@]12C` [Pregnenolone], the GFP- stood at 1.08. For `COc1cccc(Nc2c(C(N)=O)cnc3c(C)cc(S(=O)(=O)c4cccc(C(=O)N(C)C)c4)cc23)c1` the value was 0.849.

(Values after the supplement of paper PMC11060735.)
